log2 fold change data for eight targets are collected here from the supplement of paper PMC12819154, “High-throughput peptide-centric local stability assay extends protein–ligand identification to membrane proteins, tissues and bacteria” (Nature Structural & Molecular Biology, 2025).

Sequences of proteins named here, by UniProt entry; tags and fusion partners are left off. A change or cut given only in a name is not applied to a line headed by its entry.
UniProt P02792: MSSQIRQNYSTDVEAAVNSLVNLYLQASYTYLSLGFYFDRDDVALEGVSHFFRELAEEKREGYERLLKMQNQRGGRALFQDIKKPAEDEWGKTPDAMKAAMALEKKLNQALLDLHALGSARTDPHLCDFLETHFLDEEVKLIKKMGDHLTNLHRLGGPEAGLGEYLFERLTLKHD
UniProt P0CG13, whole entry: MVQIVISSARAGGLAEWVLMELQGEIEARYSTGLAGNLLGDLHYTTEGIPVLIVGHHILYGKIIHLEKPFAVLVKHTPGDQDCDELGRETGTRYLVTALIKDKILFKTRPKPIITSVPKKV
UniProt P09105: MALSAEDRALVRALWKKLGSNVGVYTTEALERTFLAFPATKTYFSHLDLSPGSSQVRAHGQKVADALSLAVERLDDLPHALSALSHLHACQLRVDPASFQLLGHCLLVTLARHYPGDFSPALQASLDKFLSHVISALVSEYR
UniProt P02144: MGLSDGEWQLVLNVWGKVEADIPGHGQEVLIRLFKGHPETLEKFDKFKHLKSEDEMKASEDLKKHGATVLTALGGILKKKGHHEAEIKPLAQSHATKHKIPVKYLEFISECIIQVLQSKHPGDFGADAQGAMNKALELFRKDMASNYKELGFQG
UniProt P02724: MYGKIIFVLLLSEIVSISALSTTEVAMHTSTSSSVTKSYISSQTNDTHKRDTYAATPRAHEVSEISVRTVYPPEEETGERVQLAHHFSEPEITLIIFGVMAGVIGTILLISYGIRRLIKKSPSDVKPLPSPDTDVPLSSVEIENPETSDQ
UniProt P09110: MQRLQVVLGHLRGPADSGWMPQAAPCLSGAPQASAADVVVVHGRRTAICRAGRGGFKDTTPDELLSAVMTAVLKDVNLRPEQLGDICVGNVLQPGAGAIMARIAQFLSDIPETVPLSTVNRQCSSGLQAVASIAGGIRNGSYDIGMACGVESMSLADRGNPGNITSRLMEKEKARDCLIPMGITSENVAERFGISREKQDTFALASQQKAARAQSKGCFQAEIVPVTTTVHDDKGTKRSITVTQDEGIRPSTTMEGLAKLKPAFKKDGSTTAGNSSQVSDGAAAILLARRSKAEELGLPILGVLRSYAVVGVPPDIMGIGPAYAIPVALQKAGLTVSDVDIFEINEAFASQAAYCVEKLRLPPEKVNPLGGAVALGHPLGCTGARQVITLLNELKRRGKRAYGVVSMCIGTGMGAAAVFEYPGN
UniProt P06132: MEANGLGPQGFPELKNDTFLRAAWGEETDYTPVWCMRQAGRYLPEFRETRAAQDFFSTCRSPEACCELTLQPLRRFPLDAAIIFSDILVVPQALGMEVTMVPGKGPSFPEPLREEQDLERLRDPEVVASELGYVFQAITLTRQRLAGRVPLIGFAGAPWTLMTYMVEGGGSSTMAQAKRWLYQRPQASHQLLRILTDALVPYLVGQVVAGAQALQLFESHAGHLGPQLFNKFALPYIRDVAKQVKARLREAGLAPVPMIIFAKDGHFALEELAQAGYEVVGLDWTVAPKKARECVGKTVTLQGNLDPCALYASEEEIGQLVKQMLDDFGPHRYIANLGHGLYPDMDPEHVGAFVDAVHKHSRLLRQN
UniProt P13861, whole entry: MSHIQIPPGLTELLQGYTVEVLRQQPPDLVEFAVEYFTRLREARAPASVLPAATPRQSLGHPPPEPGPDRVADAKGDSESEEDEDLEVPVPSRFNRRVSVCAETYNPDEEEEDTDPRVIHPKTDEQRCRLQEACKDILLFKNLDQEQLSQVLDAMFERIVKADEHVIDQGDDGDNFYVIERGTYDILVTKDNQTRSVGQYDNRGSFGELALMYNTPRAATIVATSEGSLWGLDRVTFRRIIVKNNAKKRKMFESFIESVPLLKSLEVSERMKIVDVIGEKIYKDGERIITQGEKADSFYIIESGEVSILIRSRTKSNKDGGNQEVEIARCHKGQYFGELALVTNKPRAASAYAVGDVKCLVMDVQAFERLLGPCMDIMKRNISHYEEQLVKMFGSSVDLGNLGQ

This is one part of the list. Small differences around the control level are noise.

Compound in the experiment: Cc1nc(Nc2ncc(C(=O)Nc3c(C)cccc3Cl)s2)cc(N2CCN(CCO)CC2)n1 [dasatinib]
As to the kind of experiment: log2 fold change of tryptic peptide abundance, ligand vs vehicle (limited proteolysis) (log2 ratio); higher = more trypsin-susceptible (destabilized). The note with it: ligand concentration: 5 uM; sample: K562 cleared lysate.
Regarding “FTL (peptide sequence: LNQALLDLHALGSAR, peptide start residue: 107) (UniProt P02792)”, the log2 fold change is -0.0469.

On to “UniProt P0CG13 (peptide sequence: TRPKPIITSVPK, peptide start residue: 108)”, for which the log2 fold change is 0.388.

For “HBQ1 (peptide sequence: VADALSLAVER, peptide start residue: 63) (UniProt P09105)”, the log2 fold change is -0.0898.

Regarding “UniProt P02144 (peptide sequence: KKGHHEAEIK, peptide start residue: 79)”, the log2 fold change was 0.183.

Turning to “GYPA (peptide sequence: SYISSQTNDTHKR, peptide start residue: 38) (UniProt P02724)”, the log2 fold change is -0.356.

In the case of “ACAA1 (peptide sequence: GNPGNITSR, peptide start residue: 159) (UniProt P09110)”, the log2 fold change was determined as 0.137.

Consider “UROD (peptide sequence: WLYQRPQASHQLLR, peptide start residue: 180) (UniProt P06132)”, for which the log2 fold change was found to be 0.14.

On to “PRKAR2A (peptide sequence: IVDVIGEKIYKDGER, peptide start residue: 273) (UniProt P13861)”, for which the log2 fold change is 0.189.
